Measured values from patent US20150297761A1, “PEPTIDIC STRUCTURES INCORPORATING AN AMINO ACID METAL COMPLEX AND APPLICATIONS IN MAGNETIC RESONANCE IMAGING” (THE GENERAL HOSPITAL CORPORATION, priority 2012, published 2015).
Some results were stated once for a whole list of compounds, not compound by compound.

Test: Relaxivity before and after disulfide bond reduction with TCEP
Format: physicochemical
Conditions: TCEP reduced versus cyclic
Procedure: Investigation of the effect of tertiary structure on relaxivity, was done by examination of the effect of disulfide bond reduction on T1 at 0.47 and 1.41 T. T1 was measured for each sample at 37° C. and then the samples were incubated with 20 eq. TCEP for 30 minutes at room temperature to reduce the intramolecular disulfide bond and give the linear peptide. Subsequently, the T1 values were remeasured and concentrations re-determined in order to calculate relaxivities. […] Over all, reduction of the disulfide bond has only a slight effect on relaxivity (FIGS. 16-18 and Table 5).
Reduction of disulfide bond for relaxivity measurements. […]
Measurement of relaxivity. Longitudinal relaxation times T1, were measured on Bruker Minispecs mq20 (0.47 T) and mq60 (1.41 T), a Bruker Bioscan horizontal bore 4.7 T, 9.4 T and 11.7 T Varian NMR spectrometers. T1 was measured by using an inversion recovery method with 10 inversion time values ranging from 0.05×T1 to 5×T1. Relaxivity was calculated from a linear plot of 3 or 4 different concentrations (ranging from 0.01 to 0.5 mM, depending on amount of compound isolated) versus the corresponding inverse relaxation times. All samples were measured at 37° C. using either the internal temperature control of the instrument (0.47, 1.41, 9.4 and 11.7 T) or a warm air blower (4.7 T). […]

Substance	decrease in relaxivity on disulfide bond reduction
H2N—C(SH)PG-DOTAla(Gd)-G-DOTAla(Gd)-G-DOTAla(Gd)-GC(SH)CONH2 [Gd3C3-red]	7-14%
H2N—C(SH)PG-DOTAla(Gd)-G-DOTAla(Gd)-GC(SH)CONH2 [Gd2C2-red]	7-14%
